Source: article PMC3361267 (Journal of Medicinal Chemistry, 2012)

What was measured:
OATP2B1 [1] = biological target: T1, OATP2B1 (Homo sapiens, UniProt O94956); assay: Transport kinetics of substrate uptake in OATP2B1-HEK293 cells; assay type: cell-based; conditions: OATP2B1 mediated uptake
T1 sequence (O94956 1-709): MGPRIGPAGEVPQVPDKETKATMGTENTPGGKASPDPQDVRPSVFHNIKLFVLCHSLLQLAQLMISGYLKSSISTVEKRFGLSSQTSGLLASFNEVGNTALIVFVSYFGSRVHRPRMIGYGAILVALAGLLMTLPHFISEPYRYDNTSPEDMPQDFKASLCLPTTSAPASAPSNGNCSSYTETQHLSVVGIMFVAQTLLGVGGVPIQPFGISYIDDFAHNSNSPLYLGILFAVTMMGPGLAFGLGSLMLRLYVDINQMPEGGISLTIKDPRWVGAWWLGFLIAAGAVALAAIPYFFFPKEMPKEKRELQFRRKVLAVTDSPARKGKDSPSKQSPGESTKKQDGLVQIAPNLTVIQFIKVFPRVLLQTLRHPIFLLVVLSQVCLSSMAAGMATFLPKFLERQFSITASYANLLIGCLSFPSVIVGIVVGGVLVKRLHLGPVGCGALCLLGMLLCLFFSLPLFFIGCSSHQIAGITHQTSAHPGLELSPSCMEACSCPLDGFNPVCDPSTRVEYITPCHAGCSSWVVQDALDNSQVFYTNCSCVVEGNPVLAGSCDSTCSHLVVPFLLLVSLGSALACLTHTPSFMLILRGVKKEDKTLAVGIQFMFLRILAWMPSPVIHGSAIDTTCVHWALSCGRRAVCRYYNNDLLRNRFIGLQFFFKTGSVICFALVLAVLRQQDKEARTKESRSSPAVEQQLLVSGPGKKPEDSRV

OATP1B1 = biological target: T2, OATP1B1 (Homo sapiens, UniProt Q9Y6L6); conditions: without inhibitor
T2 sequence (Q9Y6L6 1-691): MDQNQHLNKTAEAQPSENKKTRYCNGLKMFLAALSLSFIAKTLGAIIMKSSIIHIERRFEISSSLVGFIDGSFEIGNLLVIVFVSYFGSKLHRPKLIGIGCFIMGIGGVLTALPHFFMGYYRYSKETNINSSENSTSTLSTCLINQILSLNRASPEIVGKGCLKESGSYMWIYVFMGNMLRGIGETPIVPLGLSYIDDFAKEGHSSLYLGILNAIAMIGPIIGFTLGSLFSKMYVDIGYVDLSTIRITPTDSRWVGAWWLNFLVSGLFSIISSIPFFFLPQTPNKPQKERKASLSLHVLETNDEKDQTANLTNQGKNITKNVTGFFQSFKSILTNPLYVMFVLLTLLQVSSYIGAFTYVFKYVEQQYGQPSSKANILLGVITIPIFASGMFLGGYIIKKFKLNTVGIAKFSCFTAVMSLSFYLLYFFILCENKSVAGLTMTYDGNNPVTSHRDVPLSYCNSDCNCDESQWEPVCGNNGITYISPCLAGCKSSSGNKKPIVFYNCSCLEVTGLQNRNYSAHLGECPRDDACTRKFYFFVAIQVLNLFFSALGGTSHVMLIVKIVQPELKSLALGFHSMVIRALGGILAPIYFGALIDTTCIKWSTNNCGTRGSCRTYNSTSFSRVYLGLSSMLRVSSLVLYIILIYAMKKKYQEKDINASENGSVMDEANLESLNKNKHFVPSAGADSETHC

OATP2B1 [2] = biological target: T1, OATP2B1; conditions: without inhibitor
[3] = cited from earlier work

- Km (OATP2B1 [1]): 2.84 ± 1.63 µM
- Vmax (OATP2B1 [1]): 24.27 ± 8.12 pmol/mg protein/min
- OATP1B1 contribution to the overall uptake CL of atorvastatin (OATP1B1): 52%
- OATP1B1 predicted CLint,uptake of atorvastatin (OATP1B1; human liver in vivo, extrapolated with MTA): 450 μL/min/g liver
- OATP2B1 contribution to the overall uptake CL of atorvastatin (OATP2B1 [2]): 6%
Compound: CC(C)c1c(C(=O)Nc2ccccc2)c(-c2ccccc2)c(-c2ccc(F)cc2)n1CC[C@@H](O)C[C@@H](O)CC(=O)O [atorvastatin, Atorvastatin]
- Cmax,unbound [3]: 2 nM
